Cell number change and AC50 data for 65 compounds are collected here from PubChem BioAssay AID2685 (National Center for Advancing Translational Sciences (NCATS), 2010).

A word on the AC50: it is the concentration at which the activity in the assay is half-maximal.

“And” between values parts separate entries of the source, which are not always exact repeats. Equal values may be shown once. Some of the results follow. Shown are side measurements of this screen, not its main read-out; they come without a call. The list favours compounds with an active or inconclusive main result. Potencies come from curve fits of mixed quality, noted in brackets.

The experiment can be described thus: qHTS Assay for Lipid Storage Modulators in Drosophila S3 Cells.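 For Cell number change: cells counted by Cell Tracker Red CMTPX staining in the red channel.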 As to conditions: BODIPY lipid droplet fluorescence, 18-24 h; for cell number change: measured here: cell count max response, cells fed with added oleic acid. The gist of the method: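 Drosophila S3 cells got compounds at several concentrations plus oleic acid (400 uM solution). Laser-scanning cytometry with 488 nm excitation read lipid droplets at 500-530 nm and cells at 575-640 nm. Percent activity was relative to 20 uM Triacsin C.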
For orientation: qHTS replaces the single test concentration by a dilution series.

[1] abbreviates: measured here: cell number channel AC50, cells fed with added oleic acid.
The mark [2] stands for this setting: measured here: lipid fluorescence (Fed channel) AC50, cells fed with added oleic acid.

Consider `COc1ccc(N2CC(C(=O)N3CCN(c4ccccc4F)CC3)CC2=O)cc1` (configuration not stated), for which the cell number change stood at 11.4%.
With `CC[C@H](C)C(=O)N[C@H]1CCCN1C(=O)/C=C/c1ccccc1`, the cell number change was -38.8%. In addition, under setting [1], the AC50 was 0.517 µM [falling, partial curve, poor fit]. The AC50 under setting [2] is 0.184 µM [rising, full curve].
Regarding `CCC(c1nnc(SCCNCCO)n1CCN1CCOCC1)N(C)C` (configuration not stated), the cell number change is 9.3%.
Consider `Nc1nnnn1/N=C/c1ccccn1`, for which the cell number change amounted to 35%. Moreover, the AC50 under setting [1] is 1.03 µM [rising, full curve, poor fit].
For `CC(C)OC(=O)CSc1nnc(-c2ccco2)n1N`, the cell number change turned out to be 18.4%. For the same compound, under setting [2], the AC50 is 32.6 µM [falling, single point].
Consider `CC(C)(C)c1ccc(/C=N/OCC(=O)NCc2ccccc2)cc1`, for which the cell number change was 23.4%. In addition, the AC50 under setting [2] was 0.0326 µM [falling, full curve, poor fit].
Turning to `CC(=O)c1ccc(OCCCC(=O)NNC(=O)c2ccccn2)cc1`, the cell number change was 5.76%. Further, the AC50 under setting [2] was 29.1 µM [rising, single point].
As for `O=C(Nc1cccc(-c2cn3c(n2)SCC3)c1)c1ccc2c(c1)OCO2`, the cell number change is -12%. For the same compound, the AC50 under setting [2] was 0.58 µM [falling, single point].
Turning to `CCS(=O)(=O)Nc1ccc(-c2cc(-c3ccccc3)c3cc(C)ccc3n2)cc1`, the cell number change is -37.6%. Besides, the AC50 under setting [1] is 29.1 µM [falling, single point].
Take `Cc1ccc(NC(=O)c2cccnc2C(=O)Nc2ccc(C)cc2)cc1`: the AC50 under setting [2] was 29.1 µM [rising, single point].
In the case of `CN(Cc1ccccc1)C(=O)CCc1ccccc1`, the cell number change is -38.5%. Also, the AC50 under setting [1] was 0.206 µM [falling, full curve, poor fit].
Take `COCCCNC(=S)N1CCN(c2nc(-c3ccc(F)cc3)cs2)CC1`: the cell number change was -38%. Moreover, under setting [1], the AC50 is 0.259 µM [falling, full curve, poor fit].
For `COc1cc2cc(CN(CCO)C(=O)c3cccs3)c(=O)[nH]c2cc1OC`, the cell number change is -7.61%. In addition, the AC50 under setting [2] is 3.26 µM [rising, full curve, poor fit].
For `O=C(Nc1ccc(Cl)c(S(=O)(=O)N2CCOCC2)c1)c1ccccn1`, the AC50 under setting [2] is 29.1 µM [rising, partial curve, poor fit].
`COc1ccc(-c2cc(-c3ccc(O)cc3)nc(N)c2C#N)cc1`: the cell number change was 4.01%. Besides, the AC50 under setting [2] is 6.51 µM [falling, single point].
Consider `N#Cc1nnn(-c2ccc(Cl)cc2)c1N`, for which the cell number change was 6.35% and -25.2%. Moreover, the AC50 under setting [2] was 6.51 µM [falling, single point] and 32.6 µM [falling, single point].
For `C=C(C)C(=O)O[C@H]1C/C(C)=C\C(=O)/C=C(\C)[C@H](O)[C@@H]2OC(=O)C(=C)[C@@H]21`, the cell number change is -17.4%.
For the compound `O=C(Cn1nnc(-c2ccccc2)n1)Nc1cccc(S(=O)(=O)N2CCOCC2)c1`, the cell number change was -25%. Besides, the AC50 under setting [1] is 3.66 µM [falling, full curve, poor fit]. For the same compound, the AC50 under setting [2] was 29.1 µM [falling, single point].
For `O=C(Nc1ccc(Br)cc1)c1cc(-c2cccs2)on1`, the cell number change is -6.25%.
Turning to `CCOC(=O)CN1C(=O)C(O)(CC(=O)c2cccc(OC)c2)c2ccccc21` (configuration not stated), the cell number change was found to be 44.1%. Further, under setting [2], the AC50 was 23.1 µM [rising, partial curve].
Consider `COCCn1cnnc1SCC(=O)Nc1ccc(N2CCCCC2)cc1`, for which the cell number change was -16.9%. For the same compound, the concentration at half-maximal activity (AC50) under setting [2] was 0.103 µM [falling, full curve].
For the compound `COCCNC(=S)N/N=C/c1c2ccccc2cc2ccccc12`, the cell number change was -12.4%. Moreover, the AC50 under setting [2] is 6.51 µM [falling, partial curve].
On to `Cn1c(CSCc2ccc(Cl)cc2)nnc1SCC(=O)Nc1nc2ccccc2s1`, for which the cell number change is 19.5%. Moreover, the half-maximal activity concentration (AC50) under setting [1] is 6.51 µM [rising, single point]. Besides, under setting [2], the half-maximal activity concentration (AC50) was 32.6 µM [falling, single point].
`CC(NC(=O)C1CC1)C(c1cccs1)N1CCOCC1` (configuration not stated): the cell number change was -25.5%. The AC50 under setting [2] was 20.6 µM [falling, single point].
`O=C(NCc1n[nH]c(=O)c2ccccc12)C1CC(=O)N(c2ccccc2)C1` (configuration not stated): the cell number change worked out at 22.2%.
For the compound `O=C(CN(C(=O)c1nsc(Cl)c1Cl)c1cccc(F)c1)NC1CCCC1`, the cell number change was 0.901%. The concentration at half-maximal activity (AC50) under setting [2] was 6.51 µM [falling, partial curve].
On to `O=C(O)c1cc(-c2ccc(N3CCOCC3)cc2)nn1-c1ccccc1Cl`, for which the cell number change stood at 10.3%. Also, the AC50 under setting [1] was 0.184 µM [falling, full curve]. Also, the AC50 under setting [2] is 0.116 µM [falling, full curve].
Regarding `O=S(=O)(c1ccccc1)N(CC1CO1)c1cc(Cl)ccc1Cl` (configuration not stated), the cell number change was -31%. The AC50 under setting [1] is 11.6 µM [falling, single point].
`CC1(C)CC(=O)C(C=NCC2CCN(C(=S)Nc3cccc(Cl)c3)CC2)=C(O)C1`: the cell number change is -5.22%.
In the case of `Cc1ccc(S(=O)(=O)NCCOCCNS(=O)(=O)c2ccc(C)cc2)cc1`, the cell number change worked out at 3.74%. Further, the AC50 under setting [1] was 0.0461 µM [rising, partial curve].
Take `CCOc1cccc(-c2c(C(=O)N/N=C(\C)c3ccccn3)nnn2-c2nonc2N)c1`: the AC50 under setting [1] is 0.0058 µM [falling, full curve, poor fit].
For `CC1=C(C(=O)OCc2ccccc2)C(c2ccc(C)o2)C2=C(CCCC2=O)N1` (configuration not stated), the cell number change was 231%. In addition, the AC50 under setting [2] was 0.58 µM [rising, single point].
On to `O=C(Nc1nnc(-c2ccc(F)cc2)s1)c1c(F)cccc1Cl`, for which the cell number change was -2.31%.
As to `CC(C)c1ccc(NC(=O)COc2ccccn2)cc1`, the cell number change is -61.7%. For the same compound, the AC50 under setting [1] is 41.1 µM [falling, partial curve, poor fit].
For the compound `Cc1ccc(OCCCCc2c(C)n[nH]c2C)cc1`, the cell number change is -30.5%. The AC50 under setting [1] is 14.6 µM [falling, partial curve]. The AC50 under setting [2] is 29.1 µM [falling, single point].
For the compound `Cc1cccc(NC2=C(Cl)C(=O)OC2NC(=O)c2ccccc2)c1` (configuration not stated), the cell number change was 15.4%.
The same measure, in the same setting: under `CCCN1CCN(C(=S)Nc2ccc(SC(F)F)cc2)CC1` stands 6.72%.
For `O=S(=O)(NCc1ccc2c(c1)OCO2)c1ccc(F)c(F)c1`, the cell number change was -3.59%. In addition, the AC50 under setting [2] is 29.1 µM [falling, single point].
For `Cc1ccc(-c2nnn(CC(=O)N(c3ccccc3)C(C(=O)NCC3CCCO3)c3ccc(Cl)cc3)n2)cc1` (configuration not stated), the cell number change stood at 10.1%.
On the same count and under the same terms, under `O=C(c1ccc([N+](=O)[O-])s1)N1CCN(c2ccccn2)CC1` stands -19%.
On the same count and under the same terms, under `Cc1ccc(NC(=O)CCNC(=O)c2ccccc2)cc1F` stands -1.32%.
As to `c1ccc(-c2nc(CSc3n[nH]c(-c4cccs4)n3)cs2)cc1`, the cell number change worked out at 37.7%. For the same compound, the AC50 under setting [1] was 29.1 µM [rising, single point].
As for `CC(CN(C)Cc1ccccc1)OC(=O)c1cccc(F)c1` (configuration not stated), the cell number change was -4.35%.
As for `CCOC(=O)C1=C(CN2CCN(C(=O)c3ccco3)CC2)NC(=O)NC1c1ccc(OC)cc1` (configuration not stated), under setting [2], the AC50 is 0.58 µM [falling, single point].
For the compound `Cc1nn(-c2ccccc2)c2sc(C(=O)OCC(=O)N3CCCCC3)cc12`, the cell number change is 2%. Besides, under setting [2], the AC50 is 29.1 µM [rising, single point].
In the case of `Cc1noc(C)c1COc1ccc(C(=O)N2CCN(c3ccccc3F)CC2)cc1`, the cell number change was 71.7%. Further, the AC50 under setting [1] was 18.4 µM [rising, single point].
With `CN(C)C(CNc1ncnc2ccccc12)c1c(F)cccc1Cl` (configuration not stated), the cell number change was 10.9%.
Regarding `Cc1ccc(CNC(=O)Cn2c([N+](=O)[O-])cnc2C)cc1`, the AC50 under setting [1] is 0.82 µM [falling, single point].
In the case of `Cc1ccc(/C=[N+](/[O-])C2SC(=S)N(C)C2(C)C)cc1` (configuration not stated), the cell number change is -59.9%. Moreover, under setting [1], the AC50 was 4.61 µM [falling, full curve, poor fit]. In addition, the AC50 under setting [2] was 8.2 µM [falling, partial curve].
Take `CCCCc1nnc(NC(=O)c2ccc(-n3cncn3)c([N+](=O)[O-])c2)s1`: the cell number change worked out at 58%.
Regarding `CCCOc1ccc2c3c(c(=O)oc2c1)CCCC3`, the cell number change was -8.2%. The AC50 under setting [2] is 32.6 µM [rising, single point].
Regarding `Cc1sc2ncnc(NCC(O)c3ccccc3)c2c1C` (configuration not stated), the cell number change was found to be 15.4%.
As to `CSc1ncccc1C(=O)Nc1ccc(S(=O)(=O)N2CCCC2)cc1`, the cell number change is -7.65%. The AC50 under setting [2] is 0.0517 µM [rising, full curve, poor fit].
Regarding `Cc1ccc(OCC(=O)NCCCNC(=O)c2ccc(C)nc2)cc1`, the cell number change worked out at 0.87%.
In the case of `CC(C)COc1ccc2[nH]c3c(c2c1)CCCC3=O`, the cell number change was determined as 36.3%. For the same compound, under setting [1], the AC50 is 11.6 µM [rising, partial curve]. Besides, under setting [2], the AC50 was 6.51 µM [rising, single point].
Turning to `CC(=O)NCN1CCN(CNC(C)=O)CC1`, the cell number change worked out at 19.5%. Besides, the AC50 under setting [2] was 0.00461 µM [falling, full curve, poor fit].
For `O=C(c1ccc2c(=O)n(-c3ccccc3)c(=O)[nH]c2c1)N1CCN(c2ccc(F)cc2)CC1`, the cell number change was -5.07%.
`CCc1ccccc1NC(=O)C1=CN2CCS(=O)(=O)N=C2C=C1`: the cell number change was -8%.
For the compound `COc1cc2cc(CCOC(=O)c3ccc(C#N)cc3)oc(=O)c2cc1OC`, the cell number change came out at 1.1%. Further, under setting [1], the AC50 is 1.16 µM [falling, single point]. Under setting [2], the AC50 was 1.16 µM [falling, single point].
Regarding `O=C(N/N=C/c1c(O)ccc2ccccc12)c1cccc(C(F)(F)F)c1`, the cell number change was 55.8%. Besides, the AC50 under setting [1] is 9.2 µM [rising, single point]. Further, the AC50 under setting [2] is 29.1 µM [falling, single point].
As to `CCOc1ccc(N(CC(=O)NC2CCCCC2)C(=O)CNC(=O)c2cccs2)cc1`, the cell number change turned out to be 5.04%. For the same compound, under setting [2], the AC50 was 0.116 µM [falling, single point].
For `CCCCC1OC23CCCCC2C(C#N)(C(=N)O3)C1(C#N)C#N` (configuration not stated), the cell number change was -27.6%. Besides, the AC50 under setting [1] is 0.731 µM [falling, full curve]. For the same compound, under setting [2], the AC50 is 0.0651 µM [falling, full curve, poor fit].
For the compound `COc1cc(C(=O)Nc2ccc(C)cn2)c([N+](=O)[O-])cc1OC`, the cell number change amounted to 8.25%. Under setting [1], the AC50 is 6.51 µM [rising, single point]. Also, under setting [2], the AC50 is 6.51 µM [rising, single point].
Take `Cc1ccccc1C(=O)Nc1ccc(Cl)cn1`: the cell number change is -11.9%.
`O=C(COc1ccccc1Cl)Nc1ccc(N2CCN(C(=O)c3ccccc3)CC2)cc1`: the cell number change is -31.4%. Further, the AC50 under setting [1] was 29.1 µM [falling, single point]. Besides, under setting [2], the AC50 is 0.461 µM [rising, full curve, poor fit].
